For one series, the target named is PHD3 (UniProt Q9H6Z9). The series can be described thus: pull-down. Particulars: Pull-down: RNA folded in 10 mM Tris pH 7, 0.1 M KCl, 10 mM MgCl2, then 5 µg RNA with 5 mg lysate in Pierce IP lysis buffer, 1 h, room temperature, protein in an extract, label: biotin-16-UTP.
The next series concerns the target PKM2 (UniProt P14618). The series is described as follows: pull-down. Particulars: Pull-down: RNA folded in 10 mM Tris pH 7, 0.1 M KCl, 10 mM MgCl2, then 5 µg RNA with 5 mg lysate in Pierce IP lysis buffer, 1 h, room temperature, protein in an extract, label: biotin-16-UTP.
Another series deals with PKM2 (EMSA) (UniProt P14618). The series can be described thus: EMSA. The note with it: EMSA: LightShift chemiluminescent RNA EMSA kit, buffer not given; recombinant protein; label: biotin-16-UTP. In general terms: A gel shift assay detects complexes by their altered migration in electrophoresis.
The mark [1] stands for this setting: as efficient as full length, letters put together from the description.
The mark [2] stands for this setting: letters put together from the description.

Sequences of proteins named here, by UniProt entry; tags and fusion partners are left off. A change or cut given only in a name is not applied to a line headed by its entry.
UniProt Q9H6Z9: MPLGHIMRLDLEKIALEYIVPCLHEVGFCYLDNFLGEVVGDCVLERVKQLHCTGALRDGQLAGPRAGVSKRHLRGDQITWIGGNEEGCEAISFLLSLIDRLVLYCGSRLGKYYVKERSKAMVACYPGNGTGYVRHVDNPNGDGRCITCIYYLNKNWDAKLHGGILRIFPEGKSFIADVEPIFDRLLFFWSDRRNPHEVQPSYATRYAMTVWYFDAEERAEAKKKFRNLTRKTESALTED
UniProt P14618: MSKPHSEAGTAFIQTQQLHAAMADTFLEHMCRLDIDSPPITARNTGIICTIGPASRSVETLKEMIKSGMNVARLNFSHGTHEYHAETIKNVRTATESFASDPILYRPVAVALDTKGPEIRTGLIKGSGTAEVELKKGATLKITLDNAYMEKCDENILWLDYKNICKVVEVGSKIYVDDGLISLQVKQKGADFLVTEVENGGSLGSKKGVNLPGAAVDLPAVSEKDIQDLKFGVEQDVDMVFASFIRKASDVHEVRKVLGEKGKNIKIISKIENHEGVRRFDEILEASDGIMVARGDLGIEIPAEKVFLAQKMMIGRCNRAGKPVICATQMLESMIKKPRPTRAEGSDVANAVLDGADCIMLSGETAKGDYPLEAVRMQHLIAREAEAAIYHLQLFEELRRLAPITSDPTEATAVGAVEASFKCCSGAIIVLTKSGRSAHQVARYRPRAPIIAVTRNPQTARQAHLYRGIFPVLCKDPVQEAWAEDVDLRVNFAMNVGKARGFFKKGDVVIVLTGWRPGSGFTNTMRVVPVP

For at least one entry, the source does not settle the construct or the ends of the probe. For some of these results: At least one result comes from cells or an extract, where the contact may be indirect. For some of these results: Negatives hold for the conditions tested. For some of these results: At least one verdict was read from the data and is not stated in words by the source.

With “UGCAUGGUGCUUACUAAUAACACAGUGGUAUUCUAAACAUUUUUCACCUAUUAUUUAAUC [HIFAL nt 501-560]”, in the series with PHD3 (setting [1]), the binding result is reported as “binds”. For “UCAUGUAGCGCCAGCCACACCAGGAACAGAAGGGUGCCGGGUACCUUCCGCAUGCUUGGU [HIFAL nt 1-60]”, in the series with PKM2 (setting [1]), the binding result is given as “binds”.

On to “UCAGCCACCAGGAACAGUACCUGGU [HIFAL 1-60 ΔhA+ΔhB]”, for which, in the series with PKM2 (setting [2]), the binding result is listed as “no binding”. Regarding “UGCAUGUCUAAACAUUUUUCACCUAUUAUUUAAUC [HIFAL 501-560 ΔhC (mC)]”, the binding result in the series with PHD3 is given as “no binding”. “UCAGCCACCAGGAACAGAAGGGUGCCGGGUACUUCCGCAUGCUUGGU [HIFAL 1-60 ΔhA (mA)]”: the binding result with PKM2 (EMSA) and with PKM2 was “binds” throughout. As for “UGCAUGGUGCUUACUAAUAACACAGUGGUAUUCUAAACAUUUUUCACCUAUUAUUUAAUCUUUAUUAUUAUCACCAUGUUACAGAUAAGGACCCUGGCUAAAUAGCUUACCCAACAUUACUCCGUUAAUAAAUGGUAGAACCUGUAUUUCACUCAAAAA [HIFAL nt 501-659]”, in the series with PHD3 (setting [2]), the binding result is “binds”.

As for “UCAUGUAGCGCCAGCCACACCAGGAACAGUACCUGGU [HIFAL 1-60 ΔhB (mB)]”, the binding result with PKM2 (EMSA) and with PKM2 was “binds” throughout. “UCAUGUAGCGCCAGCCACACCAGGAACAGAAGGGUGCCGGGUACCUUCCGCAUGCUUGGUAUUCUCCCCGCGGGGCUCUGACCGCUGCCGCUCUCAGGCACCUGUCUUUCCUCUCCGUCCCAGAAUGGAGCCAAGACAAGGGAAUAAACGAAAUUCAAUAGUACACGGAGAUCGGGUGUCUGGGCAGCGUCUUGGAAAAA [HIFAL nt 1-200]”: the binding result with PKM2 (setting [2]) is listed as “binds”.

The values above are taken from PMC7910558.
